Reference: PubChem BioAssay AID1224830 (NIAID, 2016)
Here is one part, drawn at random, of about 18,000 deposited reagents. In the full data, about 2,900 (16%) are marked active. 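Calls are made per well; low scores hint the gene aids the LPS response, high scores that it dampens it.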 Repeated entries: four replicate wells of each siRNA pool.

Screen: 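Regulators of TLR4 signalling towards TNF-alpha in macrophage-like cells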 (primary screen)
System: human THP-1 monocytic leukaemia cells, TNF dual-luciferase reporter clone, PMA-differentiated to macrophage-like cells
Reagents: siRNA pool against human genes, 50 nM
Timing: LPS for 4 h, given about 3 days after siRNA transfection
Challenge: bacterial LPS (TLR4 ligand), 10 ng/ml
Detection: 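Ratio of firefly to renilla light, scaled to the plate median and expressed as a robust z-score per replicate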
Reading the numbers: TNF reporter robust z-score: higher = stronger TNF reporter response to LPS
Hit rule: 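a well is active when its z-score exceeds 2.8 or falls below -1.5; control wells carry no call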

| target | PubChem SID | TNF reporter robust z-score | Call |
| --- | --- | --- | --- |
| ZNF33A (zinc finger protein 33A) | SID315452212 | 0.54 | inactive |
| ZNF33A (zinc finger protein 33A) | SID315452212 | 0.35 | inactive |
| ZNF33A (zinc finger protein 33A) | SID315452212 | 0.5 | inactive |
| AGTR2 (angiotensin II receptor type 2) | SID315447246 | 2.89 | active |
| AGTR2 (angiotensin II receptor type 2) | SID315447246 | 3.16 | active |
| AGTR2 (angiotensin II receptor type 2) | SID315447246 | 3.85 | active |
| AGTR2 (angiotensin II receptor type 2) | SID315447246 | 4.28 | active |
| LNX2 (ligand of numb-protein X 2) | SID315463341 | 2.68 | inactive |
| LNX2 (ligand of numb-protein X 2) | SID315463341 | 1.5 | inactive |
| LNX2 (ligand of numb-protein X 2) | SID315463341 | 0.25 | inactive |
| LNX2 (ligand of numb-protein X 2) | SID315463341 | 1.95 | inactive |
| EPHA5 (EPH receptor A5) | SID315448529 | -1.89 | active |
| EPHA5 (EPH receptor A5) | SID315448529 | -0.31 | inactive |
| EPHA5 (EPH receptor A5) | SID315448529 | 0.26 | inactive |
| EPHA5 (EPH receptor A5) | SID315448529 | -0.07 | inactive |
| RPS27A (ribosomal protein S27a) | SID315451244 | -0.83 | inactive |
| RPS27A (ribosomal protein S27a) | SID315451244 | -0.24 | inactive |
| RPS27A (ribosomal protein S27a) | SID315451244 | -0.65 | inactive |
| RPS27A (ribosomal protein S27a) | SID315451244 | -1.11 | inactive |
| MED14 (mediator complex subunit 14) | SID315453174 | -0.59 | inactive |
| MED14 (mediator complex subunit 14) | SID315453174 | -0.79 | inactive |
| MED14 (mediator complex subunit 14) | SID315453174 | -0.9 | inactive |
| MED14 (mediator complex subunit 14) | SID315453174 | -0.36 | inactive |
| PGM5 (phosphoglucomutase 5) | SID315450552 | -0.02 | inactive |
| PGM5 (phosphoglucomutase 5) | SID315450552 | 0.58 | inactive |
| PGM5 (phosphoglucomutase 5) | SID315450552 | -1.15 | inactive |
| PGM5 (phosphoglucomutase 5) | SID315450552 | -1.01 | inactive |
| RAB38 (RAB38, member RAS oncogene family) | SID315455406 | – | inactive |
| RAB38 (RAB38, member RAS oncogene family) | SID315455406 | 3.31 | active |
| RAB38 (RAB38, member RAS oncogene family) | SID315455406 | 2.81 | active |
| RAB38 (RAB38, member RAS oncogene family) | SID315455406 | 3.18 | active |
| RAB38 (RAB38, member RAS oncogene family) | SID315455406 | 1.78 | inactive |
| ASAH2B (N-acylsphingosine amidohydrolase 2B) | SID315465144 | 0.51 | inactive |
| ASAH2B (N-acylsphingosine amidohydrolase 2B) | SID315465144 | 0.44 | inactive |
| ASAH2B (N-acylsphingosine amidohydrolase 2B) | SID315465144 | 0.82 | inactive |
| ASAH2B (N-acylsphingosine amidohydrolase 2B) | SID315465144 | 0.28 | inactive |
| PILRA (paired immunoglobin like type 2 receptor alpha) | SID315456269 | -0.28 | inactive |
| PILRA (paired immunoglobin like type 2 receptor alpha) | SID315456269 | 0.18 | inactive |
| PILRA (paired immunoglobin like type 2 receptor alpha) | SID315456269 | 0.09 | inactive |
| PILRA (paired immunoglobin like type 2 receptor alpha) | SID315456269 | 0.36 | inactive |
| TBC1D8B (TBC1 domain family member 8B) | SID315457238 | -1.36 | inactive |
| TBC1D8B (TBC1 domain family member 8B) | SID315457238 | -0.56 | inactive |
| TBC1D8B (TBC1 domain family member 8B) | SID315457238 | -1.05 | inactive |
| ANK2 (ankyrin 2) | SID315447315 | -1.12 | inactive |
| ANK2 (ankyrin 2) | SID315447315 | -1.21 | inactive |
| ANK2 (ankyrin 2) | SID315447315 | -1.26 | inactive |
| ANK2 (ankyrin 2) | SID315447315 | -1.03 | inactive |
| CHID1 (chitinase domain containing 1) | SID315459129 | -0.31 | inactive |
| CHID1 (chitinase domain containing 1) | SID315459129 | 1.39 | inactive |
| CHID1 (chitinase domain containing 1) | SID315459129 | 0 | inactive |
| CHID1 (chitinase domain containing 1) | SID315459129 | 2.77 | inactive |

Next part; the last 13 above are carried over.
| target | PubChem SID | TNF reporter robust z-score | Call |
| --- | --- | --- | --- |
| PILRA (paired immunoglobin like type 2 receptor alpha) | SID315456269 | 0.09 | inactive |
| PILRA (paired immunoglobin like type 2 receptor alpha) | SID315456269 | 0.36 | inactive |
| TBC1D8B (TBC1 domain family member 8B) | SID315457238 | -1.36 | inactive |
| TBC1D8B (TBC1 domain family member 8B) | SID315457238 | -0.56 | inactive |
| TBC1D8B (TBC1 domain family member 8B) | SID315457238 | -1.05 | inactive |
| ANK2 (ankyrin 2) | SID315447315 | -1.12 | inactive |
| ANK2 (ankyrin 2) | SID315447315 | -1.21 | inactive |
| ANK2 (ankyrin 2) | SID315447315 | -1.26 | inactive |
| ANK2 (ankyrin 2) | SID315447315 | -1.03 | inactive |
| CHID1 (chitinase domain containing 1) | SID315459129 | -0.31 | inactive |
| CHID1 (chitinase domain containing 1) | SID315459129 | 1.39 | inactive |
| CHID1 (chitinase domain containing 1) | SID315459129 | 0 | inactive |
| CHID1 (chitinase domain containing 1) | SID315459129 | 2.77 | inactive |
| EFHD2 (EF-hand domain family member D2) | SID315459251 | 0.67 | inactive |
| EFHD2 (EF-hand domain family member D2) | SID315459251 | 0.83 | inactive |
| EFHD2 (EF-hand domain family member D2) | SID315459251 | 2.17 | inactive |
| EFHD2 (EF-hand domain family member D2) | SID315459251 | -0.26 | inactive |
| TYW1 (tRNA-yW synthesizing protein 1 homolog) | SID315457537 | -0.84 | inactive |
| TYW1 (tRNA-yW synthesizing protein 1 homolog) | SID315457537 | 1.84 | inactive |
| TYW1 (tRNA-yW synthesizing protein 1 homolog) | SID315457537 | 0.56 | inactive |
| TYW1 (tRNA-yW synthesizing protein 1 homolog) | SID315457537 | 0.37 | inactive |
| NOP58 (NOP58 ribonucleoprotein) | SID315456800 | 2.02 | inactive |
| NOP58 (NOP58 ribonucleoprotein) | SID315456800 | 1.89 | inactive |
| NOP58 (NOP58 ribonucleoprotein) | SID315456800 | 1.46 | inactive |
| NOP58 (NOP58 ribonucleoprotein) | SID315456800 | -0.57 | inactive |
| SMIM7 (small integral membrane protein 7) | SID315459203 | 1.96 | inactive |
| SMIM7 (small integral membrane protein 7) | SID315459203 | -1.19 | inactive |
| SMIM7 (small integral membrane protein 7) | SID315459203 | -1.01 | inactive |
| SMIM7 (small integral membrane protein 7) | SID315459203 | -0.65 | inactive |
| RIOK2 (RIO kinase 2) | SID315457852 | -1.08 | inactive |
| RIOK2 (RIO kinase 2) | SID315457852 | -0.8 | inactive |
| RIOK2 (RIO kinase 2) | SID315457852 | -0.75 | inactive |
| RIOK2 (RIO kinase 2) | SID315457852 | -0.05 | inactive |
| SPANXD (SPANX family member D) | SID315458949 | 0.19 | inactive |
| SPANXD (SPANX family member D) | SID315458949 | 0.79 | inactive |
| SPANXD (SPANX family member D) | SID315458949 | -1.05 | inactive |
| SPANXD (SPANX family member D) | SID315458949 | -0.78 | inactive |
| SPANXD (SPANX family member D) | SID315462935 | 0.29 | inactive |
| SPANXD (SPANX family member D) | SID315462935 | 0.7 | inactive |
| SPANXD (SPANX family member D) | SID315462935 | 0.52 | inactive |
| SPANXD (SPANX family member D) | SID315462935 | 1.09 | inactive |
| ZNF426 (zinc finger protein 426) | SID315459205 | 0.22 | inactive |
| ZNF426 (zinc finger protein 426) | SID315459205 | 0.55 | inactive |
| ZNF426 (zinc finger protein 426) | SID315459205 | 0.19 | inactive |
| ZNF426 (zinc finger protein 426) | SID315459205 | 1.88 | inactive |
| KATNIP (katanin interacting protein) | SID315455104 | -0.58 | inactive |
| KATNIP (katanin interacting protein) | SID315455104 | -0.15 | inactive |
| KATNIP (katanin interacting protein) | SID315455104 | -1.03 | inactive |
| KATNIP (katanin interacting protein) | SID315455104 | -0.42 | inactive |
| SHCBP1 (SHC binding and spindle associated 1) | SID315459470 | -1.39 | inactive |
| SHCBP1 (SHC binding and spindle associated 1) | SID315459470 | -1.19 | inactive |
| SHCBP1 (SHC binding and spindle associated 1) | SID315459470 | -1.1 | inactive |
| SHCBP1 (SHC binding and spindle associated 1) | SID315459470 | -0.6 | inactive |
| COLEC12 (collectin subfamily member 12) | SID315459845 | -0.35 | inactive |
| COLEC12 (collectin subfamily member 12) | SID315459845 | 0.98 | inactive |
| COLEC12 (collectin subfamily member 12) | SID315459845 | 0.7 | inactive |
| COLEC12 (collectin subfamily member 12) | SID315459845 | 0.81 | inactive |
| TMTC2 (transmembrane O-mannosyltransferase targeting cadherins 2) | SID315462698 | 0.02 | inactive |
| TMTC2 (transmembrane O-mannosyltransferase targeting cadherins 2) | SID315462698 | -0.07 | inactive |
| TMTC2 (transmembrane O-mannosyltransferase targeting cadherins 2) | SID315462698 | -0.02 | inactive |
| TMTC2 (transmembrane O-mannosyltransferase targeting cadherins 2) | SID315462698 | -0.64 | inactive |
| ITIH1 (inter-alpha-trypsin inhibitor heavy chain 1) | SID315449565 | -0.47 | inactive |
| ITIH1 (inter-alpha-trypsin inhibitor heavy chain 1) | SID315449565 | -0.43 | inactive |
| ITIH1 (inter-alpha-trypsin inhibitor heavy chain 1) | SID315449565 | -1.08 | inactive |
| ITIH1 (inter-alpha-trypsin inhibitor heavy chain 1) | SID315449565 | -0.53 | inactive |
| CTSH (cathepsin H) | SID315448179 | 0.11 | inactive |
| CTSH (cathepsin H) | SID315448179 | 0.44 | inactive |
| CTSH (cathepsin H) | SID315448179 | -0.05 | inactive |
| CTSH (cathepsin H) | SID315448179 | 0.29 | inactive |
| TMEM68 (transmembrane protein 68) | SID315462023 | -1.29 | inactive |
| TMEM68 (transmembrane protein 68) | SID315462023 | 0.15 | inactive |
| TMEM68 (transmembrane protein 68) | SID315462023 | -0.93 | inactive |
| TMEM68 (transmembrane protein 68) | SID315462023 | 0.55 | inactive |
| KHDRBS1 | SID315454274 | 1.28 | inactive |
| KHDRBS1 | SID315454274 | 2.61 | inactive |
| KHDRBS1 | SID315454274 | 2.53 | inactive |
| KHDRBS1 | SID315454274 | 0.76 | inactive |
| CCNJL (cyclin J like) | SID315459327 | -0.7 | inactive |
| CCNJL (cyclin J like) | SID315459327 | -0.45 | inactive |
| CCNJL (cyclin J like) | SID315459327 | -0.71 | inactive |
| CD247 (CD247 molecule) | SID315447760 | -0.03 | inactive |
| CD247 (CD247 molecule) | SID315447760 | 1.44 | inactive |
| CD247 (CD247 molecule) | SID315447760 | -0.08 | inactive |
| CD247 (CD247 molecule) | SID315447760 | 1.04 | inactive |
| FAM8A1 (family with sequence similarity 8 member A1) | SID315456712 | -1.38 | inactive |
| FAM8A1 (family with sequence similarity 8 member A1) | SID315456712 | -0.31 | inactive |
| FAM8A1 (family with sequence similarity 8 member A1) | SID315456712 | -0.85 | inactive |
| FAM8A1 (family with sequence similarity 8 member A1) | SID315456712 | 0.02 | inactive |
| S1PR3 (sphingosine-1-phosphate receptor 3) | SID315448432 | 0.55 | inactive |
| S1PR3 (sphingosine-1-phosphate receptor 3) | SID315448432 | 0.53 | inactive |
| S1PR3 (sphingosine-1-phosphate receptor 3) | SID315448432 | 0.66 | inactive |
| S1PR3 (sphingosine-1-phosphate receptor 3) | SID315448432 | 0.7 | inactive |
| S1PR3 (sphingosine-1-phosphate receptor 3) | SID315463906 | -0.26 | inactive |
| S1PR3 (sphingosine-1-phosphate receptor 3) | SID315463906 | -0.08 | inactive |
| S1PR3 (sphingosine-1-phosphate receptor 3) | SID315463906 | -0.15 | inactive |
| S1PR3 (sphingosine-1-phosphate receptor 3) | SID315463906 | 0.6 | inactive |
| PALB2 (partner and localizer of BRCA2) | SID315459417 | -1.08 | inactive |
| PALB2 (partner and localizer of BRCA2) | SID315459417 | -0.92 | inactive |
| PALB2 (partner and localizer of BRCA2) | SID315459417 | -1.4 | inactive |
| PALB2 (partner and localizer of BRCA2) | SID315459417 | -1.04 | inactive |
| STRAP (serine/threonine kinase receptor associated protein) | SID315454660 | -1.43 | inactive |
| STRAP (serine/threonine kinase receptor associated protein) | SID315454660 | 0.76 | inactive |
| STRAP (serine/threonine kinase receptor associated protein) | SID315454660 | -0.23 | inactive |
| STRAP (serine/threonine kinase receptor associated protein) | SID315454660 | 0.42 | inactive |
